The list shows a part of the results. The data scatter; read single values as rough.

Protein sequences, listed by entry. Tags and fused reporters are not part of them. Lines headed by an entry give the natural chain unless they say otherwise; changes in a name come on top.
UniProt Q13586: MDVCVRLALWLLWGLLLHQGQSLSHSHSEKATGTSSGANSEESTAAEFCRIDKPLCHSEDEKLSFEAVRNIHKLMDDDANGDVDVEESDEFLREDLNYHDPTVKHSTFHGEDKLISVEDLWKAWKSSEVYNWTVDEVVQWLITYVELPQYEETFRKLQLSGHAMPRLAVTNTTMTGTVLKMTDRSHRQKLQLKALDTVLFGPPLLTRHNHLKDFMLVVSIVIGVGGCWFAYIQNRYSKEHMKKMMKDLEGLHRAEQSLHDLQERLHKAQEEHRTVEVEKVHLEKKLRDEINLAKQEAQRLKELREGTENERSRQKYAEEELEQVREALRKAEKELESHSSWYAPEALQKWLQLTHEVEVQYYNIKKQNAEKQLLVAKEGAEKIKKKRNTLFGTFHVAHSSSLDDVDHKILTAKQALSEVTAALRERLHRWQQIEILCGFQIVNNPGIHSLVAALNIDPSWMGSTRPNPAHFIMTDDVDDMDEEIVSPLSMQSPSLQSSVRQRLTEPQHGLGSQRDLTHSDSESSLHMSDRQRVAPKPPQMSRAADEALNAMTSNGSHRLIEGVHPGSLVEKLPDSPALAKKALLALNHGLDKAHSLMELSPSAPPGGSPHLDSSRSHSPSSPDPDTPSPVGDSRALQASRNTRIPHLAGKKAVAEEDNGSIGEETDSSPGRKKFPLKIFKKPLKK
UniProt Q05519: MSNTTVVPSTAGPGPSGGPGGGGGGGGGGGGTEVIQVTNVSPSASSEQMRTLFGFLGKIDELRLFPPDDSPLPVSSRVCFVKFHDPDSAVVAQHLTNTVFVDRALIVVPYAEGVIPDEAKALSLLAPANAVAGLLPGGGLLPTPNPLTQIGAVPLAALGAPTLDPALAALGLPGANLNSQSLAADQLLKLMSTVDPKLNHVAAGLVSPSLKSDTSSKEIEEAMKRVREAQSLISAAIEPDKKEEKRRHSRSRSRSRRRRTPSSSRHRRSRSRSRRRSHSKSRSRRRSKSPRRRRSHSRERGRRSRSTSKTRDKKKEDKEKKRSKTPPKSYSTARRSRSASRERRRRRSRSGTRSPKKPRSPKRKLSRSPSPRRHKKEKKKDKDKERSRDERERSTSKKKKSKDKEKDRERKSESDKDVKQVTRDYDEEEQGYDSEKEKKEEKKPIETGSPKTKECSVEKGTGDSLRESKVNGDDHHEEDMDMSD
UniProt O15020, whole entry, looked up: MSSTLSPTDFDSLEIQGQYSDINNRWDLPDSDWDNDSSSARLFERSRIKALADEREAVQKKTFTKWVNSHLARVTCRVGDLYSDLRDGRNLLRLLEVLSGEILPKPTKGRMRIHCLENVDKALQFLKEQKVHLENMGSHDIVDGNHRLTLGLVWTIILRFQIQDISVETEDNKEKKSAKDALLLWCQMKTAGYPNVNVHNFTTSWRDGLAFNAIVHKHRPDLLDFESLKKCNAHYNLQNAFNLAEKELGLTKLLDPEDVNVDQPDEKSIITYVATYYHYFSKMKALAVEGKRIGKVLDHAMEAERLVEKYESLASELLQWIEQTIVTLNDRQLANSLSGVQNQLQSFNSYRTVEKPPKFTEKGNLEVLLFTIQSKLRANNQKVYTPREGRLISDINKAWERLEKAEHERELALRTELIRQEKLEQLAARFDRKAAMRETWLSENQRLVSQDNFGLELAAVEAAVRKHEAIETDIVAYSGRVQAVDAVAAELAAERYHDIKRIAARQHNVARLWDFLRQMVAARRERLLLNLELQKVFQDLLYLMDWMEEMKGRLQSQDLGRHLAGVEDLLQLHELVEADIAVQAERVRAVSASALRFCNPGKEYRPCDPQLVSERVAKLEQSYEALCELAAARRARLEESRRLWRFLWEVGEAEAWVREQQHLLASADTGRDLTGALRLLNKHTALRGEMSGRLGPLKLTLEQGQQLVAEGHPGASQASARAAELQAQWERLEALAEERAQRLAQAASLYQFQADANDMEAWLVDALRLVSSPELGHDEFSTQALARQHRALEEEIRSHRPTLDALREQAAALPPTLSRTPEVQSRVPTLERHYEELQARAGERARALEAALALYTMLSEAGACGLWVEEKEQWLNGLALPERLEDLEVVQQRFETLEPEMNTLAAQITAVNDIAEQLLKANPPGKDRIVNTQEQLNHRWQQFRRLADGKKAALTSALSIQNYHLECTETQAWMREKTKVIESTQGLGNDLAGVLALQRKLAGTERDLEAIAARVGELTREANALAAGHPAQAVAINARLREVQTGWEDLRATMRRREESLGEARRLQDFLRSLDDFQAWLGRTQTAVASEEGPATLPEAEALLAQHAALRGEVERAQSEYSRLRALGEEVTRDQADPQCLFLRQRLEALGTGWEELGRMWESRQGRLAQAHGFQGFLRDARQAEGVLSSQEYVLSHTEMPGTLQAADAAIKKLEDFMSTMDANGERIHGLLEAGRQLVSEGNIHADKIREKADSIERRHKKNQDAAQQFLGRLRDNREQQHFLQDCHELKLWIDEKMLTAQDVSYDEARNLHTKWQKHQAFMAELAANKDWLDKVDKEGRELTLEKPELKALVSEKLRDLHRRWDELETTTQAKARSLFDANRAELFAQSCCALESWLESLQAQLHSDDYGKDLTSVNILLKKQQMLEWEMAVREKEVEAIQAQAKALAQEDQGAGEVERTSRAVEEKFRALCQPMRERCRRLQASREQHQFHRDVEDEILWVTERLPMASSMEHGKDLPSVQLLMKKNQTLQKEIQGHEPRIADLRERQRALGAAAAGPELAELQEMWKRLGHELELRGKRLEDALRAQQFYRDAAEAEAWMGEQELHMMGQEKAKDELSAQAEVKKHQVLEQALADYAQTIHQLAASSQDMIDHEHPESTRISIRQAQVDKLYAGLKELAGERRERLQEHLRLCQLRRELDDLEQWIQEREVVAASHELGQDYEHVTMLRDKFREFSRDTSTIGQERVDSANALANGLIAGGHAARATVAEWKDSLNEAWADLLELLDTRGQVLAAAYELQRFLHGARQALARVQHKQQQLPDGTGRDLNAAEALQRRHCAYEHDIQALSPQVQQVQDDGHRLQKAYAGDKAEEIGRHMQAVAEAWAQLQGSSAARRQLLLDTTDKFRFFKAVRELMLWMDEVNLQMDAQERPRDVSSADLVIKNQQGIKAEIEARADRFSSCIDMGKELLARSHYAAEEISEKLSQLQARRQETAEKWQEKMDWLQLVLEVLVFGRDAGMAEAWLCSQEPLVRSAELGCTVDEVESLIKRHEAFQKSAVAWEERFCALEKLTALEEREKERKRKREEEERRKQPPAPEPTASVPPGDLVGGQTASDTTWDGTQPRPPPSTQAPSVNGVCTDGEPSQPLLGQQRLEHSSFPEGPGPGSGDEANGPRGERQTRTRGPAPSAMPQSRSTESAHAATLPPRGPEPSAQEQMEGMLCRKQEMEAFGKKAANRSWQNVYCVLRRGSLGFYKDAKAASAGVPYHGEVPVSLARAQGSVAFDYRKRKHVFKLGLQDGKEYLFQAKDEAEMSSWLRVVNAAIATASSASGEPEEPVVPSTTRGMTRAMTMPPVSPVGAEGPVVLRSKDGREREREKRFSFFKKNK
UniProt Q9Y5M8: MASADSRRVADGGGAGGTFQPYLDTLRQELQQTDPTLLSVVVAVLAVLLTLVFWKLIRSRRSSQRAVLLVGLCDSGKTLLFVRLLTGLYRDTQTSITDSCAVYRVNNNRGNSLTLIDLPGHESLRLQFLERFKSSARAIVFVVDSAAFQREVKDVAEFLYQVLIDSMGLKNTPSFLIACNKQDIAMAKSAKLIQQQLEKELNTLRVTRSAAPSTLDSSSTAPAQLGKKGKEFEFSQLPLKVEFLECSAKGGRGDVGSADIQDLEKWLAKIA
UniProt Q13242: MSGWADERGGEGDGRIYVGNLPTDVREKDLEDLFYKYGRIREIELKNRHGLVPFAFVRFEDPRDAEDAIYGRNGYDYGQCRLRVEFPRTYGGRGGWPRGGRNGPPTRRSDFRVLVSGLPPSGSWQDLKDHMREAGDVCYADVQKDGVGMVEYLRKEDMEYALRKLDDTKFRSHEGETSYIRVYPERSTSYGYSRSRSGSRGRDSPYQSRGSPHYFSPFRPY
UniProt Q9UBP0: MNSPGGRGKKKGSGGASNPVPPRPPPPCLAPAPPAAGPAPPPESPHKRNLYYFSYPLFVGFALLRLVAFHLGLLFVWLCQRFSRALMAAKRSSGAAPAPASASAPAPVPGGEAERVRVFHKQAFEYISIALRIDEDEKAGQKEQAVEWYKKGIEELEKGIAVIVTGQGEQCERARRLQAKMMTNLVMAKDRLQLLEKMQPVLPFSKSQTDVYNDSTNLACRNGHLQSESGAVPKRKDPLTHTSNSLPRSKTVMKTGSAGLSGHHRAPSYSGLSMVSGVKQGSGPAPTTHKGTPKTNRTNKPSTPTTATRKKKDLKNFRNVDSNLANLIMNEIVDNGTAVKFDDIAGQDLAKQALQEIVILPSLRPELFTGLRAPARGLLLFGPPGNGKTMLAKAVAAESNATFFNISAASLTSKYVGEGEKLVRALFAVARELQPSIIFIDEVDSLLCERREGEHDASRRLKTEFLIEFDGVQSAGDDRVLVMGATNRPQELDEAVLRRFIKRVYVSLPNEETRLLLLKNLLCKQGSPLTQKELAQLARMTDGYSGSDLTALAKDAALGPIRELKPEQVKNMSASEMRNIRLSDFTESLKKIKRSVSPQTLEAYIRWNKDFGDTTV
UniProt Q15833: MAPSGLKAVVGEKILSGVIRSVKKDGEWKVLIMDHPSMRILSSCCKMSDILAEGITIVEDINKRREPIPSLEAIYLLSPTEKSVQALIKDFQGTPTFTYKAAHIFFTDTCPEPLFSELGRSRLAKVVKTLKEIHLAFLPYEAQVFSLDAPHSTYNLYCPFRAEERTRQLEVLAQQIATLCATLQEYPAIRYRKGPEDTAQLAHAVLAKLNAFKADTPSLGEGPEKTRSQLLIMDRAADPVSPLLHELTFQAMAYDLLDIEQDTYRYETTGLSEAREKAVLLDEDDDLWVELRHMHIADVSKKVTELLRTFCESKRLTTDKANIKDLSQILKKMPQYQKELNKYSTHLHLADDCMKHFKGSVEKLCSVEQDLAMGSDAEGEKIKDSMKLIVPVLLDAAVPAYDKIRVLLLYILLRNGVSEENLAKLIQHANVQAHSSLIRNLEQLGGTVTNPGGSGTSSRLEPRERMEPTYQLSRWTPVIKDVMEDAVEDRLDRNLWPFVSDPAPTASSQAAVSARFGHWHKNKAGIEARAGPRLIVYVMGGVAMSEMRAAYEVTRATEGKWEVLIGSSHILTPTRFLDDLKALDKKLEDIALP
UniProt Q9P246, whole entry, looked up: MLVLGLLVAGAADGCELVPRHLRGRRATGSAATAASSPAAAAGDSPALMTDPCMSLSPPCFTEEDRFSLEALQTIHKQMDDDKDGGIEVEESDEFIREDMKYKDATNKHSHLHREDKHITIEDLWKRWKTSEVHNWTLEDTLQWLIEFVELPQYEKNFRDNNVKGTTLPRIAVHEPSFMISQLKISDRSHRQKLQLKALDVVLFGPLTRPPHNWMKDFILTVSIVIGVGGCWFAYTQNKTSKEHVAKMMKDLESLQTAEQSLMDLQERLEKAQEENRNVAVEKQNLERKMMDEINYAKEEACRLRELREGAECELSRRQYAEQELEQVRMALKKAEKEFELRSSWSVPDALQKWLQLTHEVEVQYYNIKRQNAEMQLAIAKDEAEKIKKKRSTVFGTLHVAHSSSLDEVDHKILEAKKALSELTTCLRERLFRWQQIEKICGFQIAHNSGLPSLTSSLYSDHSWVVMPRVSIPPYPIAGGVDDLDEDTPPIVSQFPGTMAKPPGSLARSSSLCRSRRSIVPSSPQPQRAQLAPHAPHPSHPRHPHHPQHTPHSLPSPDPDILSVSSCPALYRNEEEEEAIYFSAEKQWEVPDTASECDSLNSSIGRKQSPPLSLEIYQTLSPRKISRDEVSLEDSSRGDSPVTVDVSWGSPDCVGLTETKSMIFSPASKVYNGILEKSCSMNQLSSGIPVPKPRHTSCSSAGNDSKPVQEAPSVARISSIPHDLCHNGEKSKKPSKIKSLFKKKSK
UniProt Q9BYT3: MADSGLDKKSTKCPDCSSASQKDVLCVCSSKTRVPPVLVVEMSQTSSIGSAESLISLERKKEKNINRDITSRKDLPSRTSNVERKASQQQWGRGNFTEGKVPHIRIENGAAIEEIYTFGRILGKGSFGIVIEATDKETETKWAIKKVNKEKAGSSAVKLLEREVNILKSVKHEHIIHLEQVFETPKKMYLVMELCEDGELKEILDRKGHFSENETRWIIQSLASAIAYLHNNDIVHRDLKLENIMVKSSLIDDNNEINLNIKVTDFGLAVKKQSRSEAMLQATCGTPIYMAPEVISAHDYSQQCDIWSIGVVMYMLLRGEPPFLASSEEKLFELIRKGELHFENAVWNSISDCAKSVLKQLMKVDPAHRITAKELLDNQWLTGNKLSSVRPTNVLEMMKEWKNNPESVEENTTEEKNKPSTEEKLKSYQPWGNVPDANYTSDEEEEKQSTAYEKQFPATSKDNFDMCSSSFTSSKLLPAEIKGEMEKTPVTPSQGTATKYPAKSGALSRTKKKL

The record followed here is the supplement of paper PMC11732987, “Enantioselective OTUD7B fragment discovery through chemoproteomics screening and high-throughput optimisation” (Communications Chemistry, 2025).

Compound in the first experiment: ClCC(=O)N[C@@H]1CCCc2ccccc12
The experiment can be described thus: log2 mean competition ratio of IA-DTB cysteine labelling (DMSO/compound) (log2 ratio); higher = stronger cysteine engagement by compound. To be noted: 50 µM; treatment time: 4 h; cell line lysate: HEK293T. As for the experimental part:
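IA-DTB competitive cysteine chemoproteomics in HEK293T RIPA lysate. Lysates were treated with compound 29 or 30 at 50 or 200 µM for 4 h, then IA-DTB (500 µM, 1 h), trypsin-digested, NeutrAvidin-enriched and analysed by diaPASEF. Competition ratio = intensity DMSO / intensity compound (n=4 treated, n=64 DMSO); binding: mean log2 CR ≥ 1 and p ≤ 0.05 plus QC filters. Target is the cysteine site.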
Take SRP72 C50 (UniProt O76094): the “log2 mean competition ratio” value is -0.0299.
On the same count and under the same terms, then STIM1 C56 (UniProt Q13586), with 0.0819.
Same read-out and setting: then SPTAN1 C315 (UniProt Q13813), with -0.0247; and SPTLC1 C133 (UniProt O15269), with 0.0557; and SRSF11 C455 (UniProt Q05519), with -0.174.
On the same count and under the same terms, as for SYNE1 C7251 (UniProt Q8NF91), the figure is -0.0176; as for SYNE2 C553 (UniProt Q8WXH0), 0.00315.
SPTBN2 C1140 (UniProt O15020): the “log2 mean competition ratio” value was 0.225.
On the same count and under the same terms, then SRPRB C100 (UniProt Q9Y5M8), with -0.238; and STAM C33, with -0.2.
On to SRSF9 C138 (UniProt Q13242), for which the “log2 mean competition ratio” value is -0.073.
On the same count and under the same terms, as for SPAST C448 (UniProt Q9UBP0), the figure is -0.357; as for STBD1 C337 (UniProt O95210), -0.39; as for STXBP2 C353 (UniProt Q15833), 0.389.
On the same count and under the same terms, then STIM2 C426 (UniProt Q9P246), with 0.125.
Consider STK33 C467 (UniProt Q9BYT3), for which the “log2 mean competition ratio” value was found to be 0.0898.
Still for that read-out and setting: as for SYNE2 C2935 (UniProt Q8WXH0), the figure is 0.0451.
Same read-out and setting: as for SRPK1 C647 (UniProt Q96SB4), the figure is -0.347.
Still for that read-out and setting: then STIM2 C313 (UniProt Q9P246), with 0.06; and SRGAP2 C1020, with 0.00513.

Staying with this experiment, now noted: 200 µM; treatment time: 4 h; cell line lysate: HEK293T.
Take SRP72 C50 (UniProt O76094): the “log2 mean competition ratio” value stood at 0.147.
On to STIM1 C56 (UniProt Q13586), for which the “log2 mean competition ratio” value amounted to 0.273.
On the same count and under the same terms, as for SPTAN1 C315 (UniProt Q13813), the figure is -0.137; as for SPTLC1 C133 (UniProt O15269), -0.112.
In the case of SRSF11 C455 (UniProt Q05519), the “log2 mean competition ratio” value is 0.227.
Turning to SYNE1 C7251 (UniProt Q8NF91), the “log2 mean competition ratio” value is 0.0143.
SYNE2 C553 (UniProt Q8WXH0): the “log2 mean competition ratio” value was found to be 0.0836.
On the same count and under the same terms, as for SPTBN2 C1140 (UniProt O15020), the figure is -0.156.
Regarding SRPRB C100 (UniProt Q9Y5M8), the “log2 mean competition ratio” value is -0.314.
On the same count and under the same terms, as for STAM C33, the figure is 0.545; as for SRSF9 C138 (UniProt Q13242), -0.225; as for SPAST C448 (UniProt Q9UBP0), 0.0897.
Still for that read-out and setting: as for STBD1 C337 (UniProt O95210), the figure is -0.153; as for STXBP2 C353 (UniProt Q15833), 0.413.
Still for that read-out and setting: then STIM2 C426 (UniProt Q9P246), with -0.0327; and STK33 C467 (UniProt Q9BYT3), with -0.428; and SYNE2 C2935 (UniProt Q8WXH0), with -0.0572.
In the case of SRPK1 C647 (UniProt Q96SB4), the “log2 mean competition ratio” value is 0.107.
Same read-out and setting: then STIM2 C313 (UniProt Q9P246), with 0.0523; and SRGAP2 C1020, with -0.00535.
